# Whole data set: some 3,200 compounds, median “TSA(without NAD+) / Primary screening (TSA) / delta Tm (K)” near -0.07, cut for the highest 2% near 0.37. This is one part of the list.
# Sequences of proteins named here, by UniProt entry; tags and fusion partners are left off. Residues count along the entry.
# UniProt Q96EB6, 2-747 limits assumed: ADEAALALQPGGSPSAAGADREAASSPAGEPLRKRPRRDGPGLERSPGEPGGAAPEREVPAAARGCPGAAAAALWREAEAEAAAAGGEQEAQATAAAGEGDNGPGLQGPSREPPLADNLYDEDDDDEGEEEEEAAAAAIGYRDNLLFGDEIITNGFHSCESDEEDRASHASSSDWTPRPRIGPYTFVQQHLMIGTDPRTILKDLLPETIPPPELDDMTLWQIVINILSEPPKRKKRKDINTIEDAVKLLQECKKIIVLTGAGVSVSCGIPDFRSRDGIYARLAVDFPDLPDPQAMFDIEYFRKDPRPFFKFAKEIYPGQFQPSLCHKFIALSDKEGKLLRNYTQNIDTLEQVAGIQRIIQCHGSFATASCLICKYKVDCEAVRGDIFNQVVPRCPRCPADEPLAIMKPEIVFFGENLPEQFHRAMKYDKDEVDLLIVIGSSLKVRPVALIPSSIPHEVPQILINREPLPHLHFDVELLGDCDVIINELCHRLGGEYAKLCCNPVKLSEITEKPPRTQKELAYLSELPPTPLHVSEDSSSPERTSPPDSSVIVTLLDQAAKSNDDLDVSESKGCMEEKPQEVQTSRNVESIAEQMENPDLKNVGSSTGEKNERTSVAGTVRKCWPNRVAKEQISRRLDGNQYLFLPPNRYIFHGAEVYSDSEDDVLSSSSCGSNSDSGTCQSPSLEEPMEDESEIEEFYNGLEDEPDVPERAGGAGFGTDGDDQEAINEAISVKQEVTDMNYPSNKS
# Biological target: NAD-dependent deacetylase Sirtuin 1 (human, UniProt Q96EB6)
# Test: primary screen, delta tm
# Parameters: single well (n = 1)
# Settings: 10 µM
# Method in brief: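 Thermal shift of Sirtuin 1 measured without NAD+, compound at 10 µM (n = 1); value is ΔTm, with hits defined as ΔTm > 0.45 K or < −1.5 K. Hits retested at 5, 10, 20 µM (n = 4) and counterscreened on bovine carbonic anhydrase and ABL1 SH2 domain.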
row,Compound,TSA(without NAD+) / Primary screening (TSA) / delta Tm (K)
1,CC(C)N(CC(N)=O)CC(=O)Nc1ccc2oc3ccccc3c2c1,-0.07 K
2,O=c1[nH]c2ccccc2c2nc(-c3cc(-c4ccccc4)n[nH]3)nn12,-0.15 K
3,CC(C)C(=O)N1CCC(C(=O)N2CCc3cc(S(=O)(=O)N(C)C)ccc32)CC1,-0.13 K
4,CC(C(N)=O)N(C)Cc1ccccc1OC(F)(F)F (stereo not drawn),-0.12 K
5,NC(=O)N1CCCC(C(=O)NCc2nncn2-c2ccccc2)C1 (stereo not drawn),-0.03 K
6,Cc1nc(COc2ccc(C(=O)Nc3ccc(S(=O)(=O)Nc4cccc(F)c4)cc3)cc2)cs1,0.09 K
7,O=C(COC(=O)c1cccc(S(=O)(=O)N2CCc3ccccc32)c1)NC12CC3CC(CC(C3)C1)C2,0.23 K
8,COc1cc(CN(C)C(=O)c2ccc3c(c2)NC(=O)CS3)ccc1OCc1ccccc1,0.08 K
9,CCCCCCCC(=O)NCC(=O)O,-0.02 K
10,O=C(Nc1ccc2c3c(cccc13)CC2)N1CCC(n2cncn2)CC1,-0.12 K
11,CC(Nc1ncnc2c(F)cccc12)c1ccc(NC(=O)NC2CC2)cc1 (stereo not drawn),-0.02 K
12,CCCCn1c(N)c(N(CC(C)C)C(=O)c2cccc(S(=O)(=O)N(C)c3ccc(C)cc3)c2)c(=O)[nH]c1=O,-0.18 K
13,Cc1cc(C)n2nc(C(=O)Nc3ccccc3Cc3ccccc3)nc2n1,0.02 K
14,COc1cc2nc(S)n(C)c(=O)c2cc1OC,0.12 K
15,CCc1nn2c(=O)cc(CNc3ccc(F)cc3Cl)nc2s1,0.27 K
16,C=CCN(c1ccc(Cl)cc1)S(=O)(=O)c1cccc(C(=O)Nc2ccc(C(N)=O)cc2)c1,-0.04 K
17,CCCOC(=O)c1ccc(NC(=O)c2cccc(S(=O)(=O)N(C)c3ccc(OC)cc3)c2)cc1,0.35 K
18,COc1cccc(CSC(C)C(N)=O)c1 (stereo not drawn),0.07 K
19,NC(=O)CC1CCN(C(=O)c2ccn(-c3cccc(F)c3)n2)CC1,-0.12 K
20,C#CCNC(=O)c1ccc2[nH]c3c(c2c1)CCCC3,-0.32 K
21,Cc1[nH]c(-c2cccc(Cl)c2)nc1C(=O)Nc1ccc(F)c(C(N)=O)c1,-0.12 K
22,Oc1ccc(N2CCN(c3ncnc4sc5c(c34)CCC5)CC2)cc1,-0.33 K
23,Cc1cc(C)c2cc(CN3CCC(C(N)=O)CC3)[nH]c2c1,-0.05 K
24,O=C(O)CSc1ccc2c3c(cccc13)C(=O)c1ccccc1-2,-0.33 K

row,Compound,TSA(without NAD+) / Primary screening (TSA) / delta Tm (K)
1,CCOC(=O)C(C)N1CCN(S(=O)(=O)c2cc(C(N)=O)n(C)c2)CC1 (stereo not drawn),-0.07 K
2,CCN(C(=O)c1ccc(Br)cc1F)c1ccncc1,-0.03 K
3,NC(=O)c1cc(-c2ccccc2)nc2ccccc12,-0.02 K
4,CCc1cc2c(N3CCC(CCN4CCN(C)CC4)CC3)ncnc2s1,-0.22 K
5,CN(c1cccc(Cl)c1)S(=O)(=O)c1cccc(C(=O)Nc2ccc(C(N)=O)cc2)c1,0.08 K
6,Cc1ccc(N)c(OCC(F)(F)F)c1,-0.02 K
7,CC(CC(=O)N1CCN(c2ccc3nccnc3n2)CC1)c1ccccc1 (stereo not drawn),-0.12 K
8,Cc1ccc(-n2c(C)c(C)c3c(N)ncnc32)cc1,0.02 K
9,C[C@H](N)C(N)=O,0.09 K
10,CC(C)(C)c1cc(NC(=O)CSc2nnc(NCc3ccco3)s2)on1,-0.17 K
11,COC(=O)C[C@H](N)C(=O)O,0.08 K
12,COc1ccc(C(=O)C2=C(O)C(=O)N(CCCN3CCOCC3)C2c2cccs2)cc1C (stereo not drawn),-0.13 K
13,COc1cc(CNC(=O)C2(C)CCOCC2)c2ccccc2n1,0.03 K
14,Cn1c(=O)[nH]c2ccc(C(=O)O)cc21,0.17 K
15,COc1ccc(CNCc2ccc(N3CCCC3=O)cc2)c(OC)c1,-0.05 K
16,Cc1ccc(C(=O)C2=C(O)C(=O)N(CCCN3CCOCC3)C2c2cccc([N+](=O)[O-])c2)cc1 (stereo not drawn),-0.13 K
17,Cc1ccc(N(C)S(=O)(=O)c2cccc(C(=O)OCc3ccc(Cl)cc3)c2)cc1,0.06 K
18,O=C(CSc1nnc(Nc2cccc(F)c2)s1)NCc1ccco1,-0.03 K
19,Cc1nc(-c2ccc(CCNC(=O)c3ccc(NC(=O)c4cccs4)cc3)s2)cs1,0.63 K
20,OC(CNc1ncccn1)c1ccc(Cl)cc1 (stereo not drawn),-0.31 K
21,Cc1ccc(C(=O)OCC(=O)Nc2c(C)n(C)n(-c3ccccc3)c2=O)cc1O,-0.17 K
22,Cc1cccc(-c2cccc(CNC(=O)c3cccnc3S)c2)c1,0.18 K
23,Cc1nn(Cc2ccc(Cl)cc2)c(Cl)c1-c1nc(-c2ccccc2)c(-c2ccccc2)[nH]1,-0.03 K
24,Cc1nc(NCCc2ccccc2)sc1C(=O)O,-0.03 K

# Structures shown so far that contain a CF3 group, in the order listed:
row,Compound,TSA(without NAD+) / Primary screening (TSA) / delta Tm (K)
4,CC(C(N)=O)N(C)Cc1ccccc1OC(F)(F)F (stereo not drawn),-0.12 K
6,Cc1ccc(N)c(OCC(F)(F)F)c1,-0.02 K

# Reference: article PMC6925144, “A prospective compound screening contest identified broader inhibitors for Sirtuin 1” (Scientific Reports, 2019)
